Measured values published in the supplement of paper PMC6411743.
± gives the standard deviation of the averaged measurements. The list shows a part of the results.

Sequences of proteins named here, by UniProt entry; tags and fusion partners are left off. A change or cut given only in a name is not applied to a line headed by its entry.
UniProt Q9BYC5: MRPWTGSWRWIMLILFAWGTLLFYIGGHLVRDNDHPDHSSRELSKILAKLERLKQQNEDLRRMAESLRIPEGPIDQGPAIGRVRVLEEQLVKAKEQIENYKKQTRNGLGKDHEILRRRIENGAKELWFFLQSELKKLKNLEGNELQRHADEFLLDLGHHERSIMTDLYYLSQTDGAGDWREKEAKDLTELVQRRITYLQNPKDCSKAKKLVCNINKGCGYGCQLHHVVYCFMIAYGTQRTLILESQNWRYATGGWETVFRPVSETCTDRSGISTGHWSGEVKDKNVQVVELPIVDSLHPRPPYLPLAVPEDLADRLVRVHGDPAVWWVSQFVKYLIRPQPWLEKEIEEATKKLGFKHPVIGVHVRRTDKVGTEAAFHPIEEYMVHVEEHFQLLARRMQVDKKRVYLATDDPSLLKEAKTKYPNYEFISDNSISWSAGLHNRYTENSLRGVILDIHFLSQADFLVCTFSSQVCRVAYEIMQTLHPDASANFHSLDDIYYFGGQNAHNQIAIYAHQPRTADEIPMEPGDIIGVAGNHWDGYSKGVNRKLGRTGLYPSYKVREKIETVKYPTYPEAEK
UniProt Q9BXR0: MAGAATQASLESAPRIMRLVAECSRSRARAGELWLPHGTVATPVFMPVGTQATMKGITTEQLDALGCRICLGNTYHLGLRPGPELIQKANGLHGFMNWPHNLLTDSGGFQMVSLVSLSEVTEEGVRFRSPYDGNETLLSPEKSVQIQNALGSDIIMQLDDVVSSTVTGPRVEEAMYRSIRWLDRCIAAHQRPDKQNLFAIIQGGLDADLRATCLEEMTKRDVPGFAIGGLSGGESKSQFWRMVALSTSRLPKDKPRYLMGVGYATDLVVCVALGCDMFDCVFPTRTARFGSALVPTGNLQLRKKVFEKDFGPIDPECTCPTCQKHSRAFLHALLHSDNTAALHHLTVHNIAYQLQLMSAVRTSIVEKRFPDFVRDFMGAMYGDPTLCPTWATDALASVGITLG
UniProt Q9BX95: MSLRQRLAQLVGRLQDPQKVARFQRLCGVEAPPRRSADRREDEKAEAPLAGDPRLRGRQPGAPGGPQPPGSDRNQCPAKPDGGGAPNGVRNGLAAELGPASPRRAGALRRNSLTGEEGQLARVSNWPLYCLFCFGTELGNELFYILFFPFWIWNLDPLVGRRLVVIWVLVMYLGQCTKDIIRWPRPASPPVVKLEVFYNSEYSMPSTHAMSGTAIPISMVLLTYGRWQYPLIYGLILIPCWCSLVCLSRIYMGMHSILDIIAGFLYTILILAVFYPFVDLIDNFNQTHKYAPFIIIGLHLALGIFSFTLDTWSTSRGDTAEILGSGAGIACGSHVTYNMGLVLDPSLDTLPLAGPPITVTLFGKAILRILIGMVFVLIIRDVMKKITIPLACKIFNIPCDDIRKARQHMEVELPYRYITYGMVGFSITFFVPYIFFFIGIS
UniProt Q96LT9: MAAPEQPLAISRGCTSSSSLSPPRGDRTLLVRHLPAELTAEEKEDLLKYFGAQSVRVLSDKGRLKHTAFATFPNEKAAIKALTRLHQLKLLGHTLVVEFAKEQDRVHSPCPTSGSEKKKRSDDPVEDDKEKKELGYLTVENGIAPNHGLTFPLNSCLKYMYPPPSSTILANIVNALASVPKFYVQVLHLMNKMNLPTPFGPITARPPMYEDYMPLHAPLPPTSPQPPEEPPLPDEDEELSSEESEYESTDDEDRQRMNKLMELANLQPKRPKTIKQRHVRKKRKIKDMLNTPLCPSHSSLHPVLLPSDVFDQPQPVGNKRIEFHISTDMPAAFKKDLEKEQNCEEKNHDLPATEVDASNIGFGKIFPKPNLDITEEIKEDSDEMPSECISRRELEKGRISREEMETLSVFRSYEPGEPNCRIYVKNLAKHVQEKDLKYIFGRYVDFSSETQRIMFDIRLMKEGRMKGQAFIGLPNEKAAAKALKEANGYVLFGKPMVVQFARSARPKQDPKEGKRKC
UniProt Q96TA1: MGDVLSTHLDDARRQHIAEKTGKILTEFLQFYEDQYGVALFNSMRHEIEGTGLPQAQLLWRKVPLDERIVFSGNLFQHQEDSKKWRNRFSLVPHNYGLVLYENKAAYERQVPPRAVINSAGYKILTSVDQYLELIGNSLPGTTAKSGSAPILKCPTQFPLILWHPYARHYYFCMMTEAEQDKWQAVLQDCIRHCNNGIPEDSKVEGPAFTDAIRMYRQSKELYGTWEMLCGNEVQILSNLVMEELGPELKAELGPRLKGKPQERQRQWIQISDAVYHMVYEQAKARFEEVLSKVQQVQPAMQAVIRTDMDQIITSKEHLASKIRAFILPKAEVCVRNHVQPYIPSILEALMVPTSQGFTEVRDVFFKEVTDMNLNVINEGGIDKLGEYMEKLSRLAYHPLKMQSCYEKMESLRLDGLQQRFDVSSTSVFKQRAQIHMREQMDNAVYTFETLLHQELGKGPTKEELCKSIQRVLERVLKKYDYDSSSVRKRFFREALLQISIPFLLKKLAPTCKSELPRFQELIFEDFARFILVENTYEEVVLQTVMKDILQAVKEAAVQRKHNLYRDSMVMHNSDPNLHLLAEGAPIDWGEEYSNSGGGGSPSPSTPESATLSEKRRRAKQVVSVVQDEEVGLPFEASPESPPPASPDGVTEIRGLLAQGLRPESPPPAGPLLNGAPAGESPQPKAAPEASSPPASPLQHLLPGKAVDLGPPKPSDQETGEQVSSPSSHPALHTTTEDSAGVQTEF
UniProt Q96MX6, whole entry: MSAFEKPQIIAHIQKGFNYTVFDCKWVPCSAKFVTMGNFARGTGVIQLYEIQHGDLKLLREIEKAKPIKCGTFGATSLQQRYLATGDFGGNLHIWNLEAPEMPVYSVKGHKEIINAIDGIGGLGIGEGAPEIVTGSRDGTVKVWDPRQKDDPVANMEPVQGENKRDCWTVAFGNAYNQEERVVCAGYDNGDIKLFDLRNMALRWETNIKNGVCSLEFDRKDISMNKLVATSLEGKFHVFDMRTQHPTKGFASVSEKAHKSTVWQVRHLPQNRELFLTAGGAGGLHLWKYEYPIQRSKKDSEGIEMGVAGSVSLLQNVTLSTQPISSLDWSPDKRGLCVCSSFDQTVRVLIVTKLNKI
UniProt Q9BRP1: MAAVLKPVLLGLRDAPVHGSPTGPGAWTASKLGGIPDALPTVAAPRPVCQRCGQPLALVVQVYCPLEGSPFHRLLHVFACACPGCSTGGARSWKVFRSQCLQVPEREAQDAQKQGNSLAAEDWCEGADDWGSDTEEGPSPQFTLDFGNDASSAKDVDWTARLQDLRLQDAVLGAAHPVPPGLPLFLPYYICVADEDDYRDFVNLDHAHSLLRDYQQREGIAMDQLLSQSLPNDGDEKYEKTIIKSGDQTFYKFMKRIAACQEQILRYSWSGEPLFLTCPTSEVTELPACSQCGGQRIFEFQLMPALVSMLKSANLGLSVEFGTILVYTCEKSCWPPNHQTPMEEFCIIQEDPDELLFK

Compound: Nc1nc2c(ncn2[C@@H]2O[C@H](COP(=O)(O)OP(=O)(O)OP(=O)(O)O)[C@@H](O)[C@H]2O)c(=O)[nH]1 [guanosine triphosphate]
Assay: NP40-soluble protein abundance relative to vehicle (solubility fold change) (ratio); higher = more soluble protein in presence of GTP
Procedure, shortened: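 In three independent experiments, Jurkat crude lysate made by Dounce homogenisation was treated for 10 min at room temperature and then 3 min at 37 °C with eight concentrations ranging from 0.1 to 10 mM. It was then solubilised with 0.8% NP40 plus benzonase for 60 min at 4 °C and ultracentrifuged. The supernatant was TMT-labelled for LC-MS/MS, and each value is the fold change against the detergent-processed vehicle for the same replicate, using vsn-normalised intensities.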

Target | NP40-soluble protein abundance (concentration: 0.1mM) | NP40-soluble protein abundance (concentration: 0.5mM) | NP40-soluble protein abundance (concentration: 1mM) | NP40-soluble protein abundance (concentration: 2mM) | NP40-soluble protein abundance (concentration: 4mM) | NP40-soluble protein abundance (concentration: 6mM) | NP40-soluble protein abundance (concentration: 8mM) | NP40-soluble protein abundance (concentration: 10mM)
FUT8 (UniProt Q9BYC5) | 1.03 ± 0.094 | 1.05 ± 0.076 | 1.06 ± 0.051 | 0.965 ± 0.043 | 1.02 ± 0.069 | 0.99 ± 0.08 | 1.01 ± 0.16 | 1 ± 0.069
QTRT1 (UniProt Q9BXR0) | 1.03 ± 0.07 | 1.05 ± 0.11 | 0.998 ± 0.057 | 1.01 ± 0.1 | 0.964 ± 0.11 | 0.976 ± 0.083 | 0.947 ± 0.05 | 0.959 ± 0.09
SGPP1 (UniProt Q9BX95) | 0.962 ± 0.079 | 0.976 ± 0.073 | 0.925 ± 0.072 | 0.917 ± 0.12 | 0.883 ± 0.072 | 0.919 ± 0.1 | 0.946 ± 0.084 | 0.936 ± 0.032
UniProt Q96LT9 and related entries | 1.26 ± 0.038 | 1.16 ± 0.16 | 1.42 ± 0.12 | 1.49 ± 0.3 | 1.61 ± 0.28 | 1.6 ± 0.35 | 1.72 ± 0.51 | 1.8 ± 0.54
ITPA (UniProt Q9BY32) | 0.959 ± 0.035 | 0.949 ± 0.026 | 0.933 ± 0.052 | 0.867 ± 0.11 | 0.845 ± 0.12 | 0.897 ± 0.1 | 0.88 ± 0.065 | 0.85 ± 0.094
UniProt Q96TA1 and related entries | 1 ± 0.015 | 1.01 ± 0.03 | 0.971 ± 0.035 | 0.942 ± 0.067 | 0.911 ± 0.039 | 0.9 ± 0.047 | 0.936 ± 0.035 | 0.925 ± 0.062
WDR92 (UniProt Q96MX6) | 1.03 ± 0.071 | 1.06 ± 0.12 | 0.998 ± 0.11 | 1.07 ± 0.14 | 1.04 ± 0.15 | 1.06 ± 0.19 | 1.02 ± 0.12 | 1.01 ± 0.13
PDCD2L (UniProt Q9BRP1) | 0.98 ± 0.055 | 0.965 ± 0.083 | 0.932 ± 0.072 | 0.964 ± 0.082 | 0.939 ± 0.12 | 0.96 ± 0.034 | 0.951 ± 0.12 | 0.974 ± 0.041

Copied from the list:
Entry of UniProt Q96LT9 and related entries under NP40-soluble protein abundance (concentration: 10mM): 1.8 ± 0.54
Entry of PDCD2L (UniProt Q9BRP1) under NP40-soluble protein abundance (concentration: 4mM): 0.939 ± 0.12
